Measurements taken from the supplement of paper PMC10849652.
Some of the results follow.

By UniProt entry, the sequences of proteins in these tests, tags left out. Where a name states a change or a piece, a line headed by the entry shows the natural chain unless it says otherwise.
UniProt Q9BRT3: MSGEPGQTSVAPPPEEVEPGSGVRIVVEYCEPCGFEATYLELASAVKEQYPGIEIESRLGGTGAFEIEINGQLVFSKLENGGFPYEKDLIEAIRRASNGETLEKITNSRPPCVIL
UniProt A9UHW6: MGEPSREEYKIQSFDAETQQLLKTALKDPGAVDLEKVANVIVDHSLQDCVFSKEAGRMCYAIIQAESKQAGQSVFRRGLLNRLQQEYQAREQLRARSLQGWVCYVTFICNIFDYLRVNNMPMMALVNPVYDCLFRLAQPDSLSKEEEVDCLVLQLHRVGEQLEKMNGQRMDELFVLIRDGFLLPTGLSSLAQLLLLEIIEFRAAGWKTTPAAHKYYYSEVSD
UniProt Q96T76: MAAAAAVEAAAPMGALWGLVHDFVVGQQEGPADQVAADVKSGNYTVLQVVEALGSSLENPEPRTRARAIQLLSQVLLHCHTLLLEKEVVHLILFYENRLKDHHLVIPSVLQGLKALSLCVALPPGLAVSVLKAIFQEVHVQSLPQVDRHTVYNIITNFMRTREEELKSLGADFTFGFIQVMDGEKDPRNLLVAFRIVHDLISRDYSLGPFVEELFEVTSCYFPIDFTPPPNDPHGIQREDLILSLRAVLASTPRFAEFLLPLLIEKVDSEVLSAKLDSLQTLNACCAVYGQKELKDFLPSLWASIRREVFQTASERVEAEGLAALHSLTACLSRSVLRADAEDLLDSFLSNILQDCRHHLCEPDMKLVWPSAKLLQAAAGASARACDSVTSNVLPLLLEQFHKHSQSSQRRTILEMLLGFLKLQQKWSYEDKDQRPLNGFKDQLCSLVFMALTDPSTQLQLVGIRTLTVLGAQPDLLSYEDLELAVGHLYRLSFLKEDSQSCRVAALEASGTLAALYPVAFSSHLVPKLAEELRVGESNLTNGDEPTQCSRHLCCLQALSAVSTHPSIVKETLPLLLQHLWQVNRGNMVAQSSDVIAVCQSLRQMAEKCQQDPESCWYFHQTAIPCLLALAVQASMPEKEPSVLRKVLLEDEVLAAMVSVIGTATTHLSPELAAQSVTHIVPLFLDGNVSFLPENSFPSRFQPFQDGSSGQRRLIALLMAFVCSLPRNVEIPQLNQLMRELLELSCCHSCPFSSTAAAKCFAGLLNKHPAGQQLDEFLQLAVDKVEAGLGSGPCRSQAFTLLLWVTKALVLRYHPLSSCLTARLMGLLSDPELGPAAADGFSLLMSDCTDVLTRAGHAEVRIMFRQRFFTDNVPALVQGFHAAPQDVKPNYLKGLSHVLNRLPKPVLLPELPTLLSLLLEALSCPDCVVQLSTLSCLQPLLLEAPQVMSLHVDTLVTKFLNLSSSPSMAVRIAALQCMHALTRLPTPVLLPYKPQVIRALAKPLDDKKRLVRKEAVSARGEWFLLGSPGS
UniProt Q86VX9: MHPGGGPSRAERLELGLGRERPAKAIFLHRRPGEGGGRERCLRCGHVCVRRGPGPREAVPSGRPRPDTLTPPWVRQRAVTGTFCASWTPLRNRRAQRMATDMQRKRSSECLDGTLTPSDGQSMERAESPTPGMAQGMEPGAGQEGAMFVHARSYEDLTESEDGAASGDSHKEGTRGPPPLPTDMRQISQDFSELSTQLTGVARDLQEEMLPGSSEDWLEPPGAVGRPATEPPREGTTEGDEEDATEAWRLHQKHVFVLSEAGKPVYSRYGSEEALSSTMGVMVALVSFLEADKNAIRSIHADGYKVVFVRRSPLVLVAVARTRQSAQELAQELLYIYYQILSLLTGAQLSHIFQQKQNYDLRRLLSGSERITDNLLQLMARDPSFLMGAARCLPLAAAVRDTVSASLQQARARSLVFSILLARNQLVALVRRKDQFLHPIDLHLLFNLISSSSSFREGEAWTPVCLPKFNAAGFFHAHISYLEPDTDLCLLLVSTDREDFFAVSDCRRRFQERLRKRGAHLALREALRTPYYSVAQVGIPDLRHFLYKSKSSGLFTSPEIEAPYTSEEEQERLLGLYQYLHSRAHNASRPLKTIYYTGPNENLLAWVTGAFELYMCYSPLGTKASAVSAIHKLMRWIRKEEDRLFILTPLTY
UniProt Q9NXC5: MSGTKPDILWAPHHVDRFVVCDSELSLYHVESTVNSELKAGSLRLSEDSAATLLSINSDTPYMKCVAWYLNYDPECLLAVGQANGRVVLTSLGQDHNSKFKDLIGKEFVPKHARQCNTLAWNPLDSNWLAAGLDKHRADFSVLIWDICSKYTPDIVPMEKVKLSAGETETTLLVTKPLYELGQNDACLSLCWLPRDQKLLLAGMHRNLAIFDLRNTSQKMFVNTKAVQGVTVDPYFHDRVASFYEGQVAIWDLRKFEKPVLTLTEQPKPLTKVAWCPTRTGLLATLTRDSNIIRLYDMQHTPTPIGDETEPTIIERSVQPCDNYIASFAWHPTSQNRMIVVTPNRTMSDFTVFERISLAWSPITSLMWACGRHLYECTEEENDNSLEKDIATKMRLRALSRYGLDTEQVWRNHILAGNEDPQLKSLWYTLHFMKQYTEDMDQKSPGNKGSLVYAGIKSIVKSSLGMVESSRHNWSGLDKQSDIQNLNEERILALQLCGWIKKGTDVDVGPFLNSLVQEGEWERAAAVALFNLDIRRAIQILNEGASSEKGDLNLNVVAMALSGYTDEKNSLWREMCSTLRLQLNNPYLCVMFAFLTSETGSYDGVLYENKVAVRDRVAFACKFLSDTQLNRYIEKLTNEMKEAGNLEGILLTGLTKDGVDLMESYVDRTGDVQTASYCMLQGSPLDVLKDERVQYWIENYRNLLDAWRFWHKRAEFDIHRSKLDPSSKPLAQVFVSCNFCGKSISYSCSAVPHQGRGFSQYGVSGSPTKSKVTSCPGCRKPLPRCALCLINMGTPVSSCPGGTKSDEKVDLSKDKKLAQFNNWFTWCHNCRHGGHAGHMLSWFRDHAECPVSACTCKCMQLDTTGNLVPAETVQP
UniProt P14174: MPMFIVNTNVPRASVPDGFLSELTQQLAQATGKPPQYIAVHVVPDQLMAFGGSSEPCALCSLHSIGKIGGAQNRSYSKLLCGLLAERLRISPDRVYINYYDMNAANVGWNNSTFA
UniProt Q96EN8: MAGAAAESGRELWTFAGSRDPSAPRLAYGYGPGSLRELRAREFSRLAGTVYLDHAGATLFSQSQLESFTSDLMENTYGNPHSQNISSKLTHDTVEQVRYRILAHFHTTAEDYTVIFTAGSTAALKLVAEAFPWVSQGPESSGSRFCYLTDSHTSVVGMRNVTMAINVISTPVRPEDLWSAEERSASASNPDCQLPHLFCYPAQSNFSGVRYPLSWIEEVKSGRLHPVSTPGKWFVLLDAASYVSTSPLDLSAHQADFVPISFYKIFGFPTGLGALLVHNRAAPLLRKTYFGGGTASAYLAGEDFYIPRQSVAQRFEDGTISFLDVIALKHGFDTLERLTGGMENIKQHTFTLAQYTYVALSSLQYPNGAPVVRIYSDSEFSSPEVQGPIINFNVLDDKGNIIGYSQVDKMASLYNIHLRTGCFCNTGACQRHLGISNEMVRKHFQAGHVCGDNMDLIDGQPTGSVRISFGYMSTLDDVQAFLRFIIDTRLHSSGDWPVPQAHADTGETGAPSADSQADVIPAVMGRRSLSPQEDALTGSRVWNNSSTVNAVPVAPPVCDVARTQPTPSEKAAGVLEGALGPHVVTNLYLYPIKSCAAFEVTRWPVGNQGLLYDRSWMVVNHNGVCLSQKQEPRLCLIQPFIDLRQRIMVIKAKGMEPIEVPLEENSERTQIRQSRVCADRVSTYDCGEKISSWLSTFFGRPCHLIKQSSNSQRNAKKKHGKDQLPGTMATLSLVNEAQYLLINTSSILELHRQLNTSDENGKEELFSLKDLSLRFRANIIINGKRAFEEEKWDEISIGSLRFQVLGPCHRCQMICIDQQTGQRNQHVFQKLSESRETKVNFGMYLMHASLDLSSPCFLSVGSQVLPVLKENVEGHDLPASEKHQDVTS
UniProt Q9NZW5: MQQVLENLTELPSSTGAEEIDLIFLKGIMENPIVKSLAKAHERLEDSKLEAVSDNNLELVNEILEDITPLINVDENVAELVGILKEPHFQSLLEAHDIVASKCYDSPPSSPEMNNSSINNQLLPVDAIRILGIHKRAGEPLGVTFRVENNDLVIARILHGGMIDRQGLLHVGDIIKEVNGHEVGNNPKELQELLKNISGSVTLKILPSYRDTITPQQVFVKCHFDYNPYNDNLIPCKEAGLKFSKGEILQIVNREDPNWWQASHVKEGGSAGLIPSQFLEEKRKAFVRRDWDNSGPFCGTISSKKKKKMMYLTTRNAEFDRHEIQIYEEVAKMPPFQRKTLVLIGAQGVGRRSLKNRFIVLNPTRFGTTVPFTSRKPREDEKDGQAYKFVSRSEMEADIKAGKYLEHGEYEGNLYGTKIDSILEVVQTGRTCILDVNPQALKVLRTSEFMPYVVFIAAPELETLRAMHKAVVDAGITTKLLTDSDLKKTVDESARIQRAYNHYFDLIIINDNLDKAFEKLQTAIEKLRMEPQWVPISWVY
UniProt Q96BX8: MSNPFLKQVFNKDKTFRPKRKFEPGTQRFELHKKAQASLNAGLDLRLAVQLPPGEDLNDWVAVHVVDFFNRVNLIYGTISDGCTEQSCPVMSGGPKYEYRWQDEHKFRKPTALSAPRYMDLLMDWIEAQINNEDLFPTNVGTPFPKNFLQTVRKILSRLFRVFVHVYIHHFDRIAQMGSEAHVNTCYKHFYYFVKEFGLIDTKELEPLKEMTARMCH
UniProt Q99547: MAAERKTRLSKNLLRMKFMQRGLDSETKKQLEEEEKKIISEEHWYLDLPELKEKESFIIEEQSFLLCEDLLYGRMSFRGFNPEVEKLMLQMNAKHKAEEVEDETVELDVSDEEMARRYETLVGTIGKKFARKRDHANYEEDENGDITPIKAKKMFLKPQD
UniProt Q99735: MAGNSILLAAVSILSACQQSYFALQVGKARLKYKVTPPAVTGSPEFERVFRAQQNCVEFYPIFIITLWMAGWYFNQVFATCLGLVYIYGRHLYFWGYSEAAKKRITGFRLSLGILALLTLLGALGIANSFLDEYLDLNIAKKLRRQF
UniProt Q86TA1: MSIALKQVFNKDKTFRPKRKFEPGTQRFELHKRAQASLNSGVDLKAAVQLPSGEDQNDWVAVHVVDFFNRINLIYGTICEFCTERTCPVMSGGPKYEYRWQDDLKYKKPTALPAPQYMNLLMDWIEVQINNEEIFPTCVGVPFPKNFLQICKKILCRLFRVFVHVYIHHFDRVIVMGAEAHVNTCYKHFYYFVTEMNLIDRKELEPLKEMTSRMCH
UniProt Q9BWT6: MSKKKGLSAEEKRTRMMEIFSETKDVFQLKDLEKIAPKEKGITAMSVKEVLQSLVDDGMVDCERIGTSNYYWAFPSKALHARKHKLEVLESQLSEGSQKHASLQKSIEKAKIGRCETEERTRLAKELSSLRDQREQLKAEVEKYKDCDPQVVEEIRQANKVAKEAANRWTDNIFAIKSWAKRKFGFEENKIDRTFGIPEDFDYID
UniProt Q9UH92: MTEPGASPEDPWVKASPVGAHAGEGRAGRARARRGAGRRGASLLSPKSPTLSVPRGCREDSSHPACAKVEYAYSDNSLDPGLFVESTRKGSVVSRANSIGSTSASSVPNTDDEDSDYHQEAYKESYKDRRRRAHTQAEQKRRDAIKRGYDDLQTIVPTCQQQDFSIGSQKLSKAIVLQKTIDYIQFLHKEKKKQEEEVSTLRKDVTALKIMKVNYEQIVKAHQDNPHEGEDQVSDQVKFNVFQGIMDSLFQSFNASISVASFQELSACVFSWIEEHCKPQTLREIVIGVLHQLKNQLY
UniProt P29372, whole entry, looked up: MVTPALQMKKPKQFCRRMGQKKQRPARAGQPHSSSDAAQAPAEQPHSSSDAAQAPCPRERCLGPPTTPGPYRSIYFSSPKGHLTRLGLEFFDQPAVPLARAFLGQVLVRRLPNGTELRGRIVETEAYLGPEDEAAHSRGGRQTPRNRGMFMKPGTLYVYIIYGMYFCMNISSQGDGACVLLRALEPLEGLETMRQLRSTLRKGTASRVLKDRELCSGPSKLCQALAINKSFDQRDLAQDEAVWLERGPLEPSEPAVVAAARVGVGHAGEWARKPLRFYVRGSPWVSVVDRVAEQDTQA
UniProt Q03111: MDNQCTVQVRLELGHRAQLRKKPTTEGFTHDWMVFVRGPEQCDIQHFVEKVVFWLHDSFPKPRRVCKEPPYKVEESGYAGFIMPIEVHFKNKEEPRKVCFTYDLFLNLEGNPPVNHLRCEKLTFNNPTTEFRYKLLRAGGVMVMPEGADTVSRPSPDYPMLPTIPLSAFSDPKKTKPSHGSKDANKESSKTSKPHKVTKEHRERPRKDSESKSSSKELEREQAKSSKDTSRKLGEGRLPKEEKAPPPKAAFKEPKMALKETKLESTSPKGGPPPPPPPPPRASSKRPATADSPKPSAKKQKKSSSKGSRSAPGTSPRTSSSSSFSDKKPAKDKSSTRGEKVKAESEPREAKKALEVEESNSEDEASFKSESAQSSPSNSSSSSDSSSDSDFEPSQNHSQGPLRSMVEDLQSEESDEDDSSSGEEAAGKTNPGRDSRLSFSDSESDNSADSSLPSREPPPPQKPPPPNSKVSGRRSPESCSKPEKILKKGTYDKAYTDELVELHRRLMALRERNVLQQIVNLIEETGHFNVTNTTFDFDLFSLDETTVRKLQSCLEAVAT

Columns and labels:
Assay in all cases: log2 fold change, soluble protein after heating vs DMSO (PISA); higher = thermal stabilisation; K562 lysate, 10 uM; active = over 0.2 and 3.5 SD of the protein, either way, in both replicates (recomputed)
lapatinib = compound: CS(=O)(=O)CCNCc1ccc(-c2ccc3ncnc(Nc4ccc(OCc5cccc(F)c5)c(Cl)c4)c3c2)o1 [lapatinib]
Outline: (§1)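 A 30 min treatment with 10 μM compound was applied to crude K562 extract at 1 mg/mL protein in PBS pH 7.4 with 1 mM MgCl2. Heating for 3 min spanned 48°C-58°C, after which aliquots were pooled, adjusted to 0.5% NP-40 at 4°C and spun at 21,000xg for 90 min. TMTpro 16plex LC-MS/MS of the supernatant, with channel sums equalised, gave values recorded as log-two fold change in thermal stability against solvent controls, from duplicates.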

pictilisib = compound: CS(=O)(=O)N1CCN(Cc2cc3nc(-c4cccc5[nH]ncc45)nc(N4CCOCC4)c3s2)CC1 [pictilisib]
Outline: as §1

crizotinib = compound: C[C@@H](Oc1cc(-c2cnn(C3CCNCC3)c2)cnc1N)c1c(Cl)ccc(F)c1Cl [crizotinib]
Outline: as §1

[1] = compound: C[C@H](C1=CC=C(C=C1)C(=O)NC2=C3C=CNC3=NC=C2)N
Outline: as §1

duvelisib = compound: C[C@H](Nc1ncnc2nc[nH]c12)c1cc2cccc(Cl)c2c(=O)n1-c1ccccc1 [duvelisib]
Outline: as §1

gandotinib = compound: Cc1cc(Nc2cc(CN3CCOCC3)c3nc(C)c(Cc4ccc(Cl)cc4F)n3n2)n[nH]1 [gandotinib]
Outline: as §1

tozasertib = compound: Cc1cc(Nc2cc(N3CCN(C)CC3)nc(Sc3ccc(NC(=O)C4CC4)cc3)n2)n[nH]1 [tozasertib]
Outline: as §1

doramapimod = compound: Cc1ccc(-n2nc(C(C)(C)C)cc2NC(=O)Nc2ccc(OCCN3CCOCC3)c3ccccc23)cc1 [doramapimod]
Outline: as §1

bafetinib = compound: Cc1ccc(NC(=O)c2ccc(CN3CC[C@H](N(C)C)C3)c(C(F)(F)F)c2)cc1Nc1nccc(-c2cncnc2)n1 [bafetinib]
Outline: as §1

[2] = compound: Cc1cccc(CC(=O)N2CCc3c2ccc(-c2cn(C)c4ncnc(N)c24)c3F)n1
Outline: as §1

Target	log2 fold change (lapatinib)	log2 fold change (pictilisib)	log2 fold change (crizotinib)	log2 fold change [1]	log2 fold change (duvelisib)	log2 fold change (gandotinib)	log2 fold change (tozasertib)	log2 fold change (doramapimod)	log2 fold change (bafetinib)	log2 fold change [2]
MIEN1 (UniProt Q9BRT3)	inactive: 0.014	inactive: 0.018	inactive: 0.109	inactive: 0.066	inactive: -0.025	inactive: -0.038	inactive: 0.041	inactive: -0.065	inactive: -0.023	inactive: -0.012
MORF4L1 isoform 2 (UniProt Q9UBU8)	inactive: 0.024	inactive: 0.023	inactive: 0.025	inactive: -0.058	inactive: 0.021	inactive: 0.037	inactive: -0.019	inactive: -0.047	inactive: -0.01	inactive: 0.006
MIF4GD isoform 3 (UniProt A9UHW6)	inactive: -0.008	inactive: -0.054	inactive: 0.012	inactive: 0.023	inactive: 0.041	inactive: 0.021	inactive: 0.005	inactive: 0.025	inactive: -0.03	inactive: 0.013
MRPL19 (UniProt P49406)	inactive: -0.026	inactive: -0.024	inactive: -0.071	inactive: -0.094	inactive: -0.026	inactive: 0.029	inactive: 0.014	inactive: 0.011	inactive: -0.048	inactive: 0.051
MOGS (UniProt Q13724)	inactive: -0.047	inactive: -0.031	inactive: -0.01	inactive: 0.036	inactive: -0.021	inactive: -0.043	inactive: 0	inactive: 0.034	inactive: -0.048	inactive: 0.03
MICU2 (UniProt Q8IYU8)	inactive: -0.057	inactive: 0.036	inactive: -0.043	inactive: 0.026	inactive: 0.015	active: -0.264	inactive: 0.083	inactive: 0.029	inactive: -0.056	inactive: 0.029
MKRN2 (UniProt Q9H000)	inactive: 0.025	inactive: -0.007	inactive: -0.006	inactive: 0.014	inactive: -0.036	inactive: -0.071	inactive: 0.01	inactive: 0.026	inactive: -0.103	inactive: 0.015
MMS19 isoform 8 (UniProt Q96T76)	inactive: -0.03	inactive: -0.04	inactive: -0.074	inactive: 0.049	inactive: -0.003	inactive: -0.101	inactive: -0.004	inactive: 0.023	inactive: -0.066	inactive: 0.004
MON1A (UniProt Q86VX9)	inactive: 0.005	inactive: -0.103	inactive: 0.028	inactive: -0.168	inactive: -0.023	inactive: 0.1	inactive: -0.073	inactive: -0.028	inactive: 0.01	inactive: 0.107
MIOS (UniProt Q9NXC5)	inactive: 0.002	inactive: -0.011	inactive: -0.018	inactive: -0.015	inactive: 0.012	inactive: 0.023	inactive: 0.028	inactive: 0.034	inactive: -0.027	inactive: 0.055
MIF (UniProt P14174)	inactive: 0.04	inactive: 0.06	inactive: -0.022	active: -0.258	inactive: 0.022	inactive: 0.11	inactive: -0.057	inactive: 0.008	inactive: 0.383	inactive: 0.024
MOCOS (UniProt Q96EN8)	inactive: -0.004	inactive: -0.034	inactive: -0.049	inactive: -0.034	inactive: 0.013	inactive: 0.053	inactive: 0.055	inactive: 0.066	inactive: -0.019	inactive: -0.016
MPP6 (UniProt Q9NZW5)	inactive: 0.007	inactive: -0.041	inactive: -0.08	inactive: -0.002	inactive: 0.011	inactive: -0.02	inactive: 0.043	inactive: -0.005	inactive: -0.032	inactive: 0.008
MOB3A (UniProt Q96BX8)	inactive: -0.028	inactive: -0.027	inactive: 0.045	inactive: -0.064	inactive: 0.12	inactive: 0.013	inactive: 0.02	inactive: -0.046	inactive: 0.011	inactive: 0.049
MRE11 (UniProt F8W7U8)	inactive: -0.04	–	–	–	–	–	–	–	–	–
MPHOSPH6 (UniProt Q99547)	inactive: -0.023	inactive: 0.018	inactive: 0.025	inactive: 0.018	inactive: 0.03	inactive: -0.039	inactive: 0.032	inactive: 0.024	inactive: -0.067	inactive: 0.019
MMS22L (UniProt Q6ZRQ5)	inactive: -0.101	inactive: -0.034	inactive: 0.113	inactive: 0.065	inactive: -0.106	inactive: -0.169	inactive: 0.087	inactive: -0.018	inactive: -0.152	inactive: -0.029
MGST2 (UniProt Q99735)	inactive: -0.049	inactive: -0.019	inactive: -0.022	inactive: 0	inactive: 0.017	inactive: -0.005	inactive: -0.047	inactive: 0.071	inactive: -0.099	inactive: 0.161
MOB3B (UniProt Q86TA1)	inactive: -0.062	inactive: -0.141	inactive: -0.059	inactive: 0.161	inactive: -0.016	inactive: -0.093	inactive: 0.173	inactive: 0.038	inactive: -0.073	inactive: 0.03
MIA3 (UniProt Q5JRA6)	inactive: -0.009	inactive: -0.045	inactive: 0.04	inactive: 0.024	inactive: 0.005	inactive: -0.07	inactive: 0.05	inactive: -0.001	inactive: 0.021	inactive: -0.02
MND1 (UniProt Q9BWT6)	inactive: 0.002	inactive: -0.012	inactive: 0.045	inactive: 0.094	inactive: -0.012	inactive: -0.059	inactive: 0.019	inactive: 0.017	inactive: 0.024	inactive: -0.112
MLXIP (UniProt Q9HAP2)	inactive: -0.009	inactive: -0.049	inactive: -0.023	inactive: -0.052	inactive: -0.078	inactive: -0.032	inactive: 0.019	inactive: 0.009	inactive: -0.01	inactive: 0.043
MON2 isoform 5 (UniProt Q7Z3U7)	inactive: -0.034	inactive: -0.027	inactive: -0.077	inactive: -0.042	inactive: 0.003	inactive: -0.031	inactive: 0.001	inactive: -0.011	inactive: -0.035	inactive: 0.12
MMUT (UniProt P22033)	inactive: 0.007	inactive: -0.008	inactive: 0.03	inactive: -0.031	inactive: -0.011	inactive: -0.022	inactive: 0.024	inactive: -0.02	inactive: -0.043	inactive: 0
MINK1 (UniProt Q8N4C8)	inactive: -0.084	inactive: -0.02	inactive: -0.149	inactive: 0.271	inactive: 0.026	inactive: -0.102	inactive: 0.014	inactive: 0.24	inactive: -0.158	inactive: 0.249
MRPL1 (UniProt Q9BYD6)	inactive: 0.001	inactive: 0.019	inactive: -0.031	inactive: -0.042	inactive: 0.037	inactive: -0.029	inactive: 0.016	inactive: 0.03	inactive: 0.019	inactive: 0.045
MLX (UniProt Q9UH92)	inactive: 0.006	inactive: -0.029	inactive: -0.117	inactive: -0.12	inactive: 0.062	inactive: -0.075	inactive: 0.05	inactive: 0.04	inactive: -0.119	inactive: 0.136
MRPL23 (UniProt Q16540)	inactive: 0.009	inactive: -0.048	inactive: -0.055	inactive: -0.006	inactive: 0.036	inactive: -0.082	inactive: -0.153	inactive: 0.037	inactive: -0.079	inactive: -0.023
MPG (UniProt P29372)	inactive: -0.029	inactive: -0.021	inactive: 0.004	inactive: 0.031	inactive: -0.026	inactive: -0.01	inactive: 0.057	inactive: -0.028	inactive: 0.023	inactive: 0.05
MLLT1 (UniProt Q03111)	inactive: -0.017	inactive: 0.011	inactive: -0.024	inactive: 0.07	inactive: -0.02	inactive: 0.008	inactive: -0.037	inactive: 0.042	inactive: 0.004	inactive: 0.013

Quoted from the listing:
MPP6 (UniProt Q9NZW5) – log2 fold change (doramapimod): inactive: -0.005
MON2 isoform 5 (UniProt Q7Z3U7) – log2 fold change [2]: inactive: 0.12
